In publication PMC7182230:
No constants are given. Whether binding was seen depends on the method and setting. In cells and extracts the contact can be indirect. Some results given as binding are weak or reduced against the parent protein; the word gives no strength.

Chains of the proteins cited; added tags and fusions are not shown. Lines headed by an entry give the natural chain unless they say otherwise; changes in a name come on top. Residues count along the entry.
UniProt Q08345: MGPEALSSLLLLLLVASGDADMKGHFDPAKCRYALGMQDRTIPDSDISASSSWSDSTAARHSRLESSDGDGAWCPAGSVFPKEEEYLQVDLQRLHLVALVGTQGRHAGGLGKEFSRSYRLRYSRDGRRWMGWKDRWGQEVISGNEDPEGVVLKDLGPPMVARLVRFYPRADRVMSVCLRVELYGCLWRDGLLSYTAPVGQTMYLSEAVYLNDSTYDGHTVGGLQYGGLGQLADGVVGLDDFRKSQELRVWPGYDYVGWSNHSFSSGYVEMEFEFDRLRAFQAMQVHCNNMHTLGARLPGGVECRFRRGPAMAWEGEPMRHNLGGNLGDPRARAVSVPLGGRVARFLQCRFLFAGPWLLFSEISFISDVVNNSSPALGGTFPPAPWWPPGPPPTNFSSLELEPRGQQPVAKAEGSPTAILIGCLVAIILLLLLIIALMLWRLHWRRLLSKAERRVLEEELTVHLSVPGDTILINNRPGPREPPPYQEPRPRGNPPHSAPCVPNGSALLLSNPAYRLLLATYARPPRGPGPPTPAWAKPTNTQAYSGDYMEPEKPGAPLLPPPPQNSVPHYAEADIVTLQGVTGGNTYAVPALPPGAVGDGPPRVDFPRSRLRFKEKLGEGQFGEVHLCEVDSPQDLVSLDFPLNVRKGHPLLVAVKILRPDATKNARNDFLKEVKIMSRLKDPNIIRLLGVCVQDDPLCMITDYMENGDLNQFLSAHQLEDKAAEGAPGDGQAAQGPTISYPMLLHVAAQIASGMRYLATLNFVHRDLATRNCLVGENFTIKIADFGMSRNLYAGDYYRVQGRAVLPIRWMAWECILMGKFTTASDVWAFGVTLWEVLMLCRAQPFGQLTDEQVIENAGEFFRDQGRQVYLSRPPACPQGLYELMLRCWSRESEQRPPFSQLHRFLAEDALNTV
DDR1-Fc fusion protein: residues 21-417 of Q08345

Legend:
[1] = molecular target: discoidin domain receptor-1 (DDR1), endogenous in primary human OA chondrocytes (human (endogenous in primary OA chondrocytes)) (UniProt Q08345); assay: co-IP; primary human OA chondrocytes, endogenous proteins; immunoprecipitation with anti-Postn and anti-DDR1 antibodies, Western blot
[2] = molecular target: DDR1-Fc fusion protein (human) (UniProt Q08345); assay: co-IP; C28/I2 cells transfected with DDR1-Fc and human Postn cDNA, lysed in RIPA buffer after 24-48 h; 1 mg extract with Protein A & G Sepharose and anti-Postn, anti-DDR1 or control IgG for 24 h at 4 C; Western blot
[3] = molecular target: T1, discoidin domain receptor 2 (DDR2) in C28/I2 cells (human (endogenous in C28/I2)) (UniProt Q16832); assay: as above
T1 sequence: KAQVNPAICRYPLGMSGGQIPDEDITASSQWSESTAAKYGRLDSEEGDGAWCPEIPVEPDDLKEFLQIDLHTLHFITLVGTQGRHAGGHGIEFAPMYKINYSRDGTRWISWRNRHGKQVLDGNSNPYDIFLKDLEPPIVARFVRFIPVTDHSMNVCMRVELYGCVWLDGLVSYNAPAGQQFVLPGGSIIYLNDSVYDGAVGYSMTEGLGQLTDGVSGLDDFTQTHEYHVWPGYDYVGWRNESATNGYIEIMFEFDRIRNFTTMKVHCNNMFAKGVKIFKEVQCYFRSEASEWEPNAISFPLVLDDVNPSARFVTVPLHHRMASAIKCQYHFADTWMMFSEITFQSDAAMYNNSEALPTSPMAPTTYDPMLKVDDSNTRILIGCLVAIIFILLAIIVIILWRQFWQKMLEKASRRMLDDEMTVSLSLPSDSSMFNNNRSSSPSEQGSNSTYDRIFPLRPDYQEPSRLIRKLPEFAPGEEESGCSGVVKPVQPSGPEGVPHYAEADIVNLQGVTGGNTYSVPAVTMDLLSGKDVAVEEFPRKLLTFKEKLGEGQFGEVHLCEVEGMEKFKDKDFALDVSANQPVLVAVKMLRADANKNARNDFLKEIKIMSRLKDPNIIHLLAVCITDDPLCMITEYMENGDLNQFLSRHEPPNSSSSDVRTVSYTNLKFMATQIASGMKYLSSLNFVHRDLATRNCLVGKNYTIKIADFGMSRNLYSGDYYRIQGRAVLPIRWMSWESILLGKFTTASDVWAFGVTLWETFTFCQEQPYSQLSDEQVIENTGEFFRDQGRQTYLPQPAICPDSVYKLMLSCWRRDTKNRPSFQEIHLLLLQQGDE

| Binder | binding [1] | binding [2] | binding [3] |
| --- | --- | --- | --- |
| periostin (Postn), endogenous in primary human OA chondrocytes (protein, UniProt Q15063 22-836) NNHYDKILAHSRIRGRDQGPNVCALQQILGTKKKYFSTCKNWYKKSICGQKTTVLYECCPGYMRMEGMKGCPAVLPIDHVYGTLGIVGATTTQRYSDASKLREEIEGKGSFTYFAPSNEAWDNLDSDIRRGLESNVNVELLNALHSHMINKRMLTKDLKNGMIIPSMYNNLGLFINHYPNGVVTVNCARIIHGNQIATNGVVHVIDRVLTQIGTSIQDFIEAEDDLSSFRAAAITSDILEALGRDGHFTLFAPTNEAFEKLPRGVLERIMGDKVASEALMKYHILNTLQCSESIMGGAVFETLEGNTIEIGCDGDSITVNGIKMVNKKDIVTNNGVIHLIDQVLIPDSAKQVIELAGKQQTTFTDLVAQLGLASALRPDGEYTLLAPVNNAFSDDTLSMDQRLLKLILQNHILKVKVGLNELYNGQILETIGGKQLRVFVYRTAVCIENSCMEKGSKQGRNGAIHIFREIIKPAEKSLHEKLKQDKRFSTFLSLLEAADLKELLTQPGDWTLFVPTNDAFKGMTSEEKEILIRDKNALQNIILYHLTPGVFIGKGFEPGVTNILKTTQGSKIFLKEVNDTLLVNELKSKESDIMTTNGVIHVVDKLLYPADTPVGNDQLLEILNKLIKYIQIKFVRGSTFKEIPVTVYTTKIITKVVEPKIKVIEGSLQPIIKTEGPTLTKVKIEGEPEFRLIKEGETITEVIHGEPIIKKYTKIIDGVPVEITEKETREERIITGPEIKYTRISTGGGETEETLKKLLQEEVTKVTKFIEGGDGHLFEDEEIKRLLQGDTPVRKLQANKKVQGSRRRLREGRSQ | binds |  |  |
| human periostin (Postn), full-length cDNA transfected into C28/I2 cells (protein, UniProt Q15063 22-836) NNHYDKILAHSRIRGRDQGPNVCALQQILGTKKKYFSTCKNWYKKSICGQKTTVLYECCPGYMRMEGMKGCPAVLPIDHVYGTLGIVGATTTQRYSDASKLREEIEGKGSFTYFAPSNEAWDNLDSDIRRGLESNVNVELLNALHSHMINKRMLTKDLKNGMIIPSMYNNLGLFINHYPNGVVTVNCARIIHGNQIATNGVVHVIDRVLTQIGTSIQDFIEAEDDLSSFRAAAITSDILEALGRDGHFTLFAPTNEAFEKLPRGVLERIMGDKVASEALMKYHILNTLQCSESIMGGAVFETLEGNTIEIGCDGDSITVNGIKMVNKKDIVTNNGVIHLIDQVLIPDSAKQVIELAGKQQTTFTDLVAQLGLASALRPDGEYTLLAPVNNAFSDDTLSMDQRLLKLILQNHILKVKVGLNELYNGQILETIGGKQLRVFVYRTAVCIENSCMEKGSKQGRNGAIHIFREIIKPAEKSLHEKLKQDKRFSTFLSLLEAADLKELLTQPGDWTLFVPTNDAFKGMTSEEKEILIRDKNALQNIILYHLTPGVFIGKGFEPGVTNILKTTQGSKIFLKEVNDTLLVNELKSKESDIMTTNGVIHVVDKLLYPADTPVGNDQLLEILNKLIKYIQIKFVRGSTFKEIPVTVYTTKIITKVVEPKIKVIEGSLQPIIKTEGPTLTKVKIEGEPEFRLIKEGETITEVIHGEPIIKKYTKIIDGVPVEITEKETREERIITGPEIKYTRISTGGGETEETLKKLLQEEVTKVTKFIEGGDGHLFEDEEIKRLLQGDTPVRKLQANKKVQGSRRRLREGRSQ |  | binds | no binding |
